# Measurements: the supplement of paper PMC4604168 (melanoma cell lines)
# The other results are listed elsewhere or left out. Repeats are few or missing, and single values can be far off.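 Imaging used 1,536-well plates; nuclei positive for cleaved PARP by antibody were divided by total DNA-stained nuclei to yield the apoptosis fraction. Doses for screening kept most cells viable, and cell lines differ markedly in resting and induced cleaved-PARP levels.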
# Test system: G361
# Experiment: cleaved PARP positive nuclei fraction relative to DMSO control; melanoma cells; higher = more apoptosis
# Conditions: library dose: low library concentration; 72 h
row,SMILES,cleaved PARP positive nuclei fraction
1,"Cc1cc(Nc2cc(N3CCN(C)CC3)nc(Sc3ccc(NC(=O)C4CC4)cc3)n2)n[nH]1 [Tozasertib] + N#Cc1c(O)c2c(-c3ccc(-c4ccccc4O)cc3)csc2[nH]c1=O [A769662] (first compound 0.006 µM, partner dose 2 µM)",119%
2,"O=C(Nc1cc(C(F)(F)F)cc(C(F)(F)F)c1)c1cc(Cl)ccc1O + COc1ccc(COc2ccc(Cc3cnc(N)nc3N)cc2OC)cc1 [GW2580] (first compound 0.016 µM, partner dose 1 µM)",26.4%
3,"O=C(/C=C/c1cccnc1)NCCCCC1CCN(C(=O)c2ccccc2)CC1 + COc1cc(N2CCC(N3CCN(C)CC3)CC2)ccc1Nc1ncc(Cl)c(Nc2ccccc2S(=O)(=O)C(C)C)n1 [NVP-TAE684] (first compound 0.01 µM, partner dose 0.08 µM)",3420%
4,"N#CC[C@H](C1CCCC1)n1cc(-c2ncnc3[nH]ccc23)cn1 [ruxolitinib] + Cn1cc(/C=C2\C(=O)Nc3cccnc32)c2ccccc21 [GW441756] (first compound 1 µM, partner dose 0.4 µM)",174%
5,"CCCCCCCCCCCCCCCCCCOP(=O)([O-])OC1CC[N+](C)(C)CC1 [Perifosine] + Oc1nc(-c2ccc(C(F)(F)F)cc2)nc2c1CSCC2 [XAV939] (first compound 0.4 µM, partner dose 2 µM)",97.4%
6,"O=C(/C=C/c1cccnc1)NCCCCC1CCN(C(=O)c2ccccc2)CC1 + Oc1nc(-c2ccc(C(F)(F)F)cc2)nc2c1CSCC2 [XAV939] (first compound 0.01 µM, partner dose 2 µM)",1260%
7,"Cc1ccc(Nc2nccc(N(C)c3ccc4c(C)n(C)nc4c3)n2)cc1S(N)(=O)=O [Pazopanib] + N#Cc1c(O)c2c(-c3ccc(-c4ccccc4O)cc3)csc2[nH]c1=O [A769662] (first compound 0.4 µM, partner dose 2 µM)",84.4%
8,"N#CC[C@H](C1CCCC1)n1cc(-c2ncnc3[nH]ccc23)cn1 [ruxolitinib] + COc1cc2ncnc(Nc3ccc(Oc4ccccc4)cc3)c2cc1OC [SrcI1] (first compound 1 µM, partner dose 2 µM)",155%
9,"O=C(Nc1cc(C(F)(F)F)cc(C(F)(F)F)c1)c1cc(Cl)ccc1O + CCN(CC)CCCCNc1ncc2cc(-c3cc(OC)cc(OC)c3)c(NC(=O)NC(C)(C)C)nc2n1 [PD173074] (first compound 0.016 µM, partner dose 0.1 µM)",68.6%
10,"CCCCCCCCCCCCCCCCCCOP(=O)([O-])OC1CC[N+](C)(C)CC1 [Perifosine] + COc1ccc2c(c1)CCC1C2CCC2(C)C(NCCCCCCN3C(=O)C=CC3=O)CCC12 [U73122] (first compound 0.4 µM, partner dose 0.4 µM)",35.1%
11,"O=c1[nH]nc(Sc2ncc([N+](=O)[O-])s2)n1-c1ccc2c(c1)OCCO2 + N#Cc1c(O)c2c(-c3ccc(-c4ccccc4O)cc3)csc2[nH]c1=O [A769662] (first compound 0.2 µM, partner dose 2 µM)",54.2%
12,"O=c1[nH]nc(Sc2ncc([N+](=O)[O-])s2)n1-c1ccc2c(c1)OCCO2 + COc1ccc2c(c1)CCC1C2CCC2(C)C(NCCCCCCN3C(=O)C=CC3=O)CCC12 [U73122] (first compound 0.2 µM, partner dose 0.4 µM)",37.3%
13,"N#CC[C@H](C1CCCC1)n1cc(-c2ncnc3[nH]ccc23)cn1 [ruxolitinib] + O=C(Nc1ccccc1)c1cc([N+](=O)[O-])ccc1Cl [GW9662] (first compound 1 µM, partner dose 2 µM)",114%
14,"O=C(/C=C/c1cccnc1)NCCCCC1CCN(C(=O)c2ccccc2)CC1 + O=c1cc(-c2cccc3c2Sc2ccccc2S3)oc(N2CCOCC2)c1 [KU55933] (first compound 0.01 µM, partner dose 1 µM)",2010%
15,"CCCCCCCCCCCCCCCCCCOP(=O)([O-])OC1CC[N+](C)(C)CC1 [Perifosine] + Cc1cc([N+](=O)[O-])ccc1NS(=O)(=O)c1cc(Cl)ccc1Cl [FH535] (first compound 0.4 µM, partner dose 1 µM)",135%
16,"N#CC[C@H](C1CCCC1)n1cc(-c2ncnc3[nH]ccc23)cn1 [ruxolitinib] + O=S(=O)(c1ccccc1)N(CC(F)(F)F)c1ccc(C(O)(C(F)(F)F)C(F)(F)F)cc1 [T0901317] (first compound 1 µM, partner dose 1.4 µM)",31.6%

row,SMILES,cleaved PARP positive nuclei fraction
1,"Cc1cn(-c2cc(NC(=O)c3ccc(C)c(Nc4nccc(-c5cccnc5)n4)c3)cc(C(F)(F)F)c2)cn1 [nilotinib] + COC(=O)c1sccc1S(=O)(=O)Nc1ccc(Nc2ccccc2)cc1OC [GSK0660] (first compound 0.2 µM, partner dose 1 µM)",69.5%
2,"Cc1ccc(Nc2nccc(N(C)c3ccc4c(C)n(C)nc4c3)n2)cc1S(N)(=O)=O [Pazopanib] + O=C(O)C(=O)Nc1sc2c(c1C(=O)O)CCNC2 [TCS401] (first compound 0.4 µM, partner dose 1.66667 µM)",166%
3,"N#CC[C@H](C1CCCC1)n1cc(-c2ncnc3[nH]ccc23)cn1 [ruxolitinib] + COc1ccc(COc2ccc(Cc3cnc(N)nc3N)cc2OC)cc1 [GW2580] (first compound 1 µM, partner dose 1 µM)",81.3%
4,"Cc1ccc(Nc2nccc(N(C)c3ccc4c(C)n(C)nc4c3)n2)cc1S(N)(=O)=O [Pazopanib] + CCc1ccc(CCOc2ccc(CC3SC(=O)NC3=O)cc2)nc1 [pioglitazone] (first compound 0.4 µM, partner dose 2 µM)",21.7%
5,"Cc1cc(Nc2cc(N3CCN(C)CC3)nc(Sc3ccc(NC(=O)C4CC4)cc3)n2)n[nH]1 [Tozasertib] + c1cc(-c2cnn3cc(-c4ccc(OCCN5CCCCC5)cc4)cnc23)ccn1 [Dorsomorphin] (first compound 0.006 µM, partner dose 0.4 µM)",87.9%
6,"Cc1ccc(Nc2nccc(N(C)c3ccc4c(C)n(C)nc4c3)n2)cc1S(N)(=O)=O [Pazopanib] + COC(=O)c1sccc1S(=O)(=O)Nc1ccc(Nc2ccccc2)cc1OC [GSK0660] (first compound 0.4 µM, partner dose 1 µM)",172%
7,"COc1cc([C@@H]2c3cc4c(cc3[C@@H](O[C@@H]3O[C@@H]5CO[C@@H](C)O[C@H]5[C@H](O)[C@H]3O)[C@H]3COC(=O)[C@H]23)OCO4)cc(OC)c1O [etoposide] + O=S(=O)(c1ccccc1)N(CC(F)(F)F)c1ccc(C(O)(C(F)(F)F)C(F)(F)F)cc1 [T0901317] (first compound 0.02 µM, partner dose 1.4 µM)",121%
8,"O=c1[nH]nc(Sc2ncc([N+](=O)[O-])s2)n1-c1ccc2c(c1)OCCO2 + c1cc(-c2cnn3cc(-c4ccc(OCCN5CCCCC5)cc4)cnc23)ccn1 [Dorsomorphin] (first compound 0.2 µM, partner dose 0.4 µM)",92.3%
9,"Cc1cc(Nc2cc(N3CCN(C)CC3)nc(Sc3ccc(NC(=O)C4CC4)cc3)n2)n[nH]1 [Tozasertib] + Oc1cc(-c2nc(-c3ccccc3)[nH]c2-c2ccncc2)ccc1Cl [L779450] (first compound 0.006 µM, partner dose 0.2 µM)",148%
10,"Cc1cc(Nc2cc(N3CCN(C)CC3)nc(Sc3ccc(NC(=O)C4CC4)cc3)n2)n[nH]1 [Tozasertib] + Cn1cc(/C=C2\C(=O)Nc3cccnc32)c2ccccc21 [GW441756] (first compound 0.006 µM, partner dose 0.4 µM)",119%
11,"Cc1cn(-c2cc(NC(=O)c3ccc(C)c(Nc4nccc(-c5cccnc5)n4)c3)cc(C(F)(F)F)c2)cn1 [nilotinib] + O=C(O)C(=O)Nc1sc2c(c1C(=O)O)CCNC2 [TCS401] (first compound 0.2 µM, partner dose 1.66667 µM)",96.2%
12,"Cc1cn(-c2cc(NC(=O)c3ccc(C)c(Nc4nccc(-c5cccnc5)n4)c3)cc(C(F)(F)F)c2)cn1 [nilotinib] + O=S(=O)(c1ccccc1)N(CC(F)(F)F)c1ccc(C(O)(C(F)(F)F)C(F)(F)F)cc1 [T0901317] (first compound 0.2 µM, partner dose 1.4 µM)",130%
13,"COc1cc([C@@H]2c3cc4c(cc3[C@@H](O[C@@H]3O[C@@H]5CO[C@@H](C)O[C@H]5[C@H](O)[C@H]3O)[C@H]3COC(=O)[C@H]23)OCO4)cc(OC)c1O [etoposide] + Cc1cc([N+](=O)[O-])ccc1NS(=O)(=O)c1cc(Cl)ccc1Cl [FH535] (first compound 0.02 µM, partner dose 1 µM)",105%
14,"N#CC[C@H](C1CCCC1)n1cc(-c2ncnc3[nH]ccc23)cn1 [ruxolitinib] + N#Cc1c(O)c2c(-c3ccc(-c4ccccc4O)cc3)csc2[nH]c1=O [A769662] (first compound 1 µM, partner dose 2 µM)",109%
15,"COc1cc([C@@H]2c3cc4c(cc3[C@@H](O[C@@H]3O[C@@H]5CO[C@@H](C)O[C@H]5[C@H](O)[C@H]3O)[C@H]3COC(=O)[C@H]23)OCO4)cc(OC)c1O [etoposide] + O=C1NC(=O)/C(=C/c2ccc(-c3ccc(F)cc3O)o2)S1 [AS252424] (first compound 0.02 µM, partner dose 1 µM)",53.5%
